The text below walks through data of article PMC5640428.

No constants are given. Whether binding was seen depends on the method and setting. Binding seen in cells or lysates may run through a third protein. Here binding means that the protein was enriched with, or labelled near, the bait; the list need not be complete.

This assay deals with T1, native KCC2 (K+-Cl- cotransporter KCC2) (mouse (endogenous in brain)) (UniProt Q91V14).
T1 sequence: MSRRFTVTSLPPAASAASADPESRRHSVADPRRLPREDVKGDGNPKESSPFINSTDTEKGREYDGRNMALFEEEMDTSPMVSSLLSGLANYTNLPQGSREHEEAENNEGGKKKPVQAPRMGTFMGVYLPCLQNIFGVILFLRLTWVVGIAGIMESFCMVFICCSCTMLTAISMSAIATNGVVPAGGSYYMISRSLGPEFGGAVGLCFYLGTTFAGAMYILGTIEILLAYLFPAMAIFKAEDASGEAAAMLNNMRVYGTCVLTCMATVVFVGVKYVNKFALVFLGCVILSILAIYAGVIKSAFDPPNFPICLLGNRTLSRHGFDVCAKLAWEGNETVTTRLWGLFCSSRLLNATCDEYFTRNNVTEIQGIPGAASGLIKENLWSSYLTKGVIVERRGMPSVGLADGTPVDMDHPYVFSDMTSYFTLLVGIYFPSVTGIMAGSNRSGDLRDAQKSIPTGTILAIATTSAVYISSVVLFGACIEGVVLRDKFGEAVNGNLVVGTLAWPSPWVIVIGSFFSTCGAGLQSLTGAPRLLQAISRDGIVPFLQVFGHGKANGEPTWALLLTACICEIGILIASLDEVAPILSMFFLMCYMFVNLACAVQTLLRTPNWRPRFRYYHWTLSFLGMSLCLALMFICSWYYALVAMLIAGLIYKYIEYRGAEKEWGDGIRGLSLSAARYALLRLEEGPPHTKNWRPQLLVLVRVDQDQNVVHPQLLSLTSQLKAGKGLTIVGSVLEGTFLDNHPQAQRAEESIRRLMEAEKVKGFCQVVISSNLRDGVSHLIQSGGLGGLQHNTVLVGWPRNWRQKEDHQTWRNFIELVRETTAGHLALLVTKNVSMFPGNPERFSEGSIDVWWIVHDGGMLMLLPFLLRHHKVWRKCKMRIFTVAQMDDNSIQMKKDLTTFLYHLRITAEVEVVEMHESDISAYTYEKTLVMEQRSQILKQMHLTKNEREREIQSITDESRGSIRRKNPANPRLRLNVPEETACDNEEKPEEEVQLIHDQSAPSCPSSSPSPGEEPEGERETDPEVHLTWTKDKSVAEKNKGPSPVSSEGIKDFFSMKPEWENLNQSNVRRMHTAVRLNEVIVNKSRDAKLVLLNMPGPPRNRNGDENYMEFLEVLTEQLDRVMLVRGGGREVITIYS
Nature of the assay: affinity purification with mass spectrometry; C-terminal pan-KCC2 antibody (5 µg) on beads; CHAPS-solubilised membrane fractions (1 mg) of P50 mouse brain; parallel IgG control.

B1: RNF8 (protein, UniProt Q8VC56 1-488)
chain: MGEPDPLVSGQLAARRSWCLRRLGMDCEWLQLEAGTEVTIGRGLSVTYQLISKVCPLMISRSHCVLKQNPEGQWTIMDNKSLNGVWLNRERLAPLQGYCIRKGDHIQLGVPLESRETAEYEYEVIEEDWESLAPCLAPKNDQRMEKHKGSRTKRKFSSPGLENLPAEGSSDLRCPLANVASKPIEPEKLHGKGDASSQSLGCLCPGLTSLKASERAAGPHACSALPKVLELSCPKKQKACRPSASQNSLELFKVTMSRMLKLKTQMQEKQIAVLNVKRQTRKGSSKKIVRMEKELRNLQSQLYAEQAQQQARVEQLEKTFQEEAHYLQGLEKEQGECDLKQQLVQALQEHQALMEELNCSKKDFEKIIQAKNKELEQTKEEKDKVQAQKEEVLSHMNDLLENELQCIICSEYFIEAVTLNCAHSFCSFCINEWMKRKVECPICRKDIESRTNSLVLDNCISKMVDNLSSDVKERRSVLIRERRAKRLS
B1: the binding entry is “binds”.

B2: CD47 (protein, UniProt Q61735 19-303)
chain: QLLFSNVNSIEFTSCNETVVIPCIVRNVEAQSTEEMFVKWKLNKSYIFIYDGNKNSTTTDQNFTSAKISVSDLINGIASLKMDKRDAMVGNYTCEVTELSREGKTVIELKNRTVSWFSPNEKILIVIFPILAILLFWGKFGILTLKYKSSHTNKRIILLLVAGLVLTVIVVVGAILLIPGEKPVKNASGLGLIVISTGILILLQYNVFMTAFGMTSFTIAILITQVLGYVLALVGLCLCIMACEPVHGPLLISGLGIIALAELLGLVYMKFVASNQRTIQPPRNR
For B2, the binding result is on record as “binds”.
